Our source for the binding values is PMC10825180.

Amino acid sequences for entries named in this document (tags omitted).
UniProt Q01196: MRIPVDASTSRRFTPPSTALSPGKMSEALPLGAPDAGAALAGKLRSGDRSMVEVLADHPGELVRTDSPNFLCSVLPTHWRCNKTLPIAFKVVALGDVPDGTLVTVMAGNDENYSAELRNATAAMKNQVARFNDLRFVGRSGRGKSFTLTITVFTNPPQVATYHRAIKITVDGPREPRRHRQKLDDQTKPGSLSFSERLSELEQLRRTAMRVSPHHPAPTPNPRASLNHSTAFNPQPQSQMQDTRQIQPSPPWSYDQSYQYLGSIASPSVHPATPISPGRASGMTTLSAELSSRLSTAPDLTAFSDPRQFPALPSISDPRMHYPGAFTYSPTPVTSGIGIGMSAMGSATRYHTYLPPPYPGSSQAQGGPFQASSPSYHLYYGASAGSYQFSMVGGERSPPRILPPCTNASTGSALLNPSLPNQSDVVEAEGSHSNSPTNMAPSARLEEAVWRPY
UniProt P06748: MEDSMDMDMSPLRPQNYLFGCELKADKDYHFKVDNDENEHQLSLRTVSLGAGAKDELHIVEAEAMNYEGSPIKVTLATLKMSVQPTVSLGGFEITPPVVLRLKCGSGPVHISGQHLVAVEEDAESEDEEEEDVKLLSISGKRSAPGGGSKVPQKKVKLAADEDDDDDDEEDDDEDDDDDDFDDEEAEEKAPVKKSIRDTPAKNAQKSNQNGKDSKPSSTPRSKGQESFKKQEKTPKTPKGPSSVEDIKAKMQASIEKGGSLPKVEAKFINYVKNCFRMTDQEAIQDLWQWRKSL

Experiment [1] addresses RUNX1, wild type, tagged (plasmid) (UniProt Q01196). As to the kind of experiment: co-IP; total lysates of HEK 293T cells expressing wild type or truncations of RUNX1 and NPM1; precipitated and blotted with antibodies against HA or MYC tags.
For experiment [2], the target named is Runt-related transcription factor 1 (RUNX1) (human (endogenous in GBM cells)) (UniProt Q01196). As to the kind of experiment: proximity ligation; fixed and permeabilised GBM cells, two primary antibodies, PLA plus and minus probes, confocal microscopy.
The target is the same in experiment [3]. As to the kind of experiment: co-IP; endogenous proteins of GBM cells; NP-40 lysis buffer; anti-RUNX1 or anti-NPM1 antibody with magnetic beads overnight at 4 °C; western blot; also done after siRNA depletion of NPM1 in N9 and TBD0220 cells. On the technique in general: Immunoblotting shows a protein as a band on a membrane.

No constants are given. Whether binding was seen depends on the method and setting. In cells and extracts the contact can be indirect. Some binding calls cover weakened binding; strength is not graded here.

Turning to “NPM1, wild type, tagged (plasmid) (from UniProt P06748 1-294)”, the binding result in experiment [1] is on record as “binds”. Regarding “Nucleophosmin 1 (NPM1) (from UniProt P06748 1-294)”, the binding entry in experiment [2] and in experiment [3] was “binds” each time.
